Results are given in words; binding and its absence hold for the method and conditions named. In cells and extracts the contact can be indirect. A result given as binding can be weak or reduced; the word gives no strength.
Experiments:
Experiment in all cases: pull-down; His6-GST-mouse Aire CTT-FLAG variants on glutathione Sepharose beads (SEC Buffer: 25 mM HEPES pH 7.5, 100 mM NaCl, 5 mM BME; blocked with 0.1% BSA), nuclear extracts of 293T cells transfected with HA-p300 variants, 1 h, 4 °C; western blot; only the target purified
[1] = target: His6-GST-mouse Aire CTT-FLAG ΔCTT.R3 (mouse) (UniProt Q9Z0E3)
[2] = target: His6-GST-mouse Aire CTT-FLAG ΔCTT.R2 (mouse) (UniProt Q9Z0E3)
[3] = target: His6-GST-mouse Aire CTT-FLAG ΔCTT.R1 (mouse) (UniProt Q9Z0E3)

The chains behind the UniProt entries cited, without tags or fusion partners. Where a name states a change or a piece, a line headed by the entry shows the natural chain unless it says otherwise.
UniProt Q9Z0E3: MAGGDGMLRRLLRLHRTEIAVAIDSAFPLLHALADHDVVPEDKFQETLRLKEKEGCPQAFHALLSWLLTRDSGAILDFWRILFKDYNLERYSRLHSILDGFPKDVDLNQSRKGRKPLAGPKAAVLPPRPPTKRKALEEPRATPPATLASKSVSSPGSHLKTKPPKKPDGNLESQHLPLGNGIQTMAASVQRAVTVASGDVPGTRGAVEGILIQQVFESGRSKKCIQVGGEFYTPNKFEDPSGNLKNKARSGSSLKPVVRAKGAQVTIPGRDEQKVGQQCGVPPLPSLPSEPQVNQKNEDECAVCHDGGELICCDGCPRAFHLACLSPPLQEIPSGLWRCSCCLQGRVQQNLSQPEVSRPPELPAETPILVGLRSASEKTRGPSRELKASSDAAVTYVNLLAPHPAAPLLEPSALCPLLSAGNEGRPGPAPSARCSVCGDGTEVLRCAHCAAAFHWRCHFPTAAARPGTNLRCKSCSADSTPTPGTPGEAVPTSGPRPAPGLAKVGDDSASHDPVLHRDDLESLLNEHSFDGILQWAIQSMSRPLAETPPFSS
UniProt Q09472: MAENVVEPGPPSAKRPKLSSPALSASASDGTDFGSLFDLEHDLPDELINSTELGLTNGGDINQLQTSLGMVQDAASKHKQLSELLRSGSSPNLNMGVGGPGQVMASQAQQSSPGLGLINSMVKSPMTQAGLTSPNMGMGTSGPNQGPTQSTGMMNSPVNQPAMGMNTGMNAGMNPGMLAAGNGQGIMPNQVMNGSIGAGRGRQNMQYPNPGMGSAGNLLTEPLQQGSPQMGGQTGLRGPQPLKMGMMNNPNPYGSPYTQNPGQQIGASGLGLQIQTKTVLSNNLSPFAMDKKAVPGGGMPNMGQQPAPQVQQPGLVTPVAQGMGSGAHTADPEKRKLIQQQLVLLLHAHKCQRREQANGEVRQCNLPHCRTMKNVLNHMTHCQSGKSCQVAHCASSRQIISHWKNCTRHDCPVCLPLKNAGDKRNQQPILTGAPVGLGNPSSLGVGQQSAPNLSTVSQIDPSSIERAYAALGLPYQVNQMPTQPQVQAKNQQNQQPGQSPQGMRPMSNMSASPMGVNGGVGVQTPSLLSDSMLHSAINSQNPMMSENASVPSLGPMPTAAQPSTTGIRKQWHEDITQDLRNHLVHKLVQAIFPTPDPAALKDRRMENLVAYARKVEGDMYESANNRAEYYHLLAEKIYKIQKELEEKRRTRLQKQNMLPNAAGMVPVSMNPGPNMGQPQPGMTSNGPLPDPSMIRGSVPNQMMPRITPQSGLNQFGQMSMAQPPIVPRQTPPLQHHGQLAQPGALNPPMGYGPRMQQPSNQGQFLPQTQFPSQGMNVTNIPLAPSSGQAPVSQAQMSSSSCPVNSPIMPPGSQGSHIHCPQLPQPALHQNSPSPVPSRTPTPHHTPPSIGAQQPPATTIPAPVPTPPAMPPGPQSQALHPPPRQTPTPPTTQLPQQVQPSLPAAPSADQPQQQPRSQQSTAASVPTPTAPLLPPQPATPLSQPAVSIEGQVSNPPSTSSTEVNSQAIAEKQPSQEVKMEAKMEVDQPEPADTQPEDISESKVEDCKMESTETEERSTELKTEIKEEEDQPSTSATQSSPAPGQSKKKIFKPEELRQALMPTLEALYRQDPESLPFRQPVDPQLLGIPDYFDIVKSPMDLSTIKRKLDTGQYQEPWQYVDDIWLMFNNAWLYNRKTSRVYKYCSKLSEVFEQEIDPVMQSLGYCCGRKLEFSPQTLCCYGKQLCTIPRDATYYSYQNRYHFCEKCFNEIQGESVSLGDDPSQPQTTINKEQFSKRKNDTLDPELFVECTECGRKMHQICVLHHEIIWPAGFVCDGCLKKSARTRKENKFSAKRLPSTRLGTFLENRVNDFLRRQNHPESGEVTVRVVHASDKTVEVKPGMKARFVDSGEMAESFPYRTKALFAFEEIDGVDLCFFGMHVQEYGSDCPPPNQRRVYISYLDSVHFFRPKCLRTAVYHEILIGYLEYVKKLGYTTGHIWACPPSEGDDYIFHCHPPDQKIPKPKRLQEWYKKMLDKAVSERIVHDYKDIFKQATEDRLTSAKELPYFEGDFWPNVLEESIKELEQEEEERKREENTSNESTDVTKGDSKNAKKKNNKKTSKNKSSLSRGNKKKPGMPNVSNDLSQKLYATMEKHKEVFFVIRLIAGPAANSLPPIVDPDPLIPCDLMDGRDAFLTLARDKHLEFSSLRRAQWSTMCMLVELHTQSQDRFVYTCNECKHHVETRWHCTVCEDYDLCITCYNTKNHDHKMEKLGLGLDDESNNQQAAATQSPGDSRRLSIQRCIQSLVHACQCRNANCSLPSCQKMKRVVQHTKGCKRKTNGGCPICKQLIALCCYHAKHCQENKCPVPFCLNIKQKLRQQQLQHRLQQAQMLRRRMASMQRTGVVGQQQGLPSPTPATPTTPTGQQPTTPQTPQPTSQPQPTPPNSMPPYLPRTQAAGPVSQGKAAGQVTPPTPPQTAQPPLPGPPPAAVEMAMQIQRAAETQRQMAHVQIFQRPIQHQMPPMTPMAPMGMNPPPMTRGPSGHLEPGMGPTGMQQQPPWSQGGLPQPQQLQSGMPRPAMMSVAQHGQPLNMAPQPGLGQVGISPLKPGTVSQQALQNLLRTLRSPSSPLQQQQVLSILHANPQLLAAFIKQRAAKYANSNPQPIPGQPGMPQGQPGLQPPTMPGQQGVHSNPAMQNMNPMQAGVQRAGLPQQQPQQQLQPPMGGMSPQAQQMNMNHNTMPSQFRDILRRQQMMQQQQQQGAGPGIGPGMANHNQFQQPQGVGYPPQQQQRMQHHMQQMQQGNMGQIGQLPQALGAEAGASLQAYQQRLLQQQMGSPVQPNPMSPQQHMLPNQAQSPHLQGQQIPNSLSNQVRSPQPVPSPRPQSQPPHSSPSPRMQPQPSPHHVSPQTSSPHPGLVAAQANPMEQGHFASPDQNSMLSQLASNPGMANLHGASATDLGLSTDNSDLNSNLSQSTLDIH

Measured: binding

HA-p300 (from UniProt Q09472 1-2414)
binds: all assays above

Reference: article PMC11362013, “Mechanism for controlled assembly of transcriptional condensates by Aire” (Nature Immunology, 2024)
